Screen size: about 31,000 sequences; about 1,400 (4.5%) were called active.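 How the source made its calls: active means median seed-adjusted z-score above 1 or below -1; inactive means the rest.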 This is one part of the list.

The assay is described as follows: Novel Modifiers of Survival Motor Neuron (SMN) Protein: Gene Identification via Genome-wide siRNA Screen.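 Further: luminescence tracks full-length SMN protein made from the SMN2 reporter.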 As to conditions: HEK293T SMN2-luciferase reporter, siRNA knockdown, 72 h; actives lie on both sides. The method, boiled down:
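Each of three siRNAs per gene is reverse-transfected (1 pmol) into reporter HEK293T cells whose luciferase output tracks SMN protein level. After 72 h culture, ONE-Glo luminescence is control-normalized, log10-transformed and MAD-standardized; Common Seed Analysis deprioritizes seed-driven hits.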
On the technique in general: A reporter such as luciferase makes a cellular process visible.
Turning to GGAAUAUUCAUGUCAAUCATT against LAMA3, the median seed-adjusted z-score was inactive: 0.534.
The result for CUCCGUAUCAUAGAUGUAATT against PCDHB3 reads inactive: 0.304.
GGAUGAUAUUAACAGGUCATT against USP8: the median seed-adjusted z-score was inactive: 0.743.
In the case of CCACACUUUUGGUCUUUAATT against PGDS, the median seed-adjusted z-score is inactive: 0.02.
The result for GCAGCGAGUCAGUAACUUUTT against SUPT4H1 reads active: -1.01.
On to GGUGGUACACCUAACCCUATT against INADL, for which the median seed-adjusted z-score was inactive: 0.53.
The result for GCGCUAUAGUGUCCGAGCUTT against TIRAP reads inactive: -0.431.
The result for UCACAUAUCGAAUUACCAATT against MUPCDH reads inactive: -0.329; that for GCUCAUCAACGACAAGGUUTT against NPTX2, inactive: 0.0558; that for GGCGAAAACGAAGGAAUCUTT against SLC39A5, inactive: -0.311.
For the sequence CCAAGGUCCUGAGGUCUAATT against SIN3A, the median seed-adjusted z-score is inactive: -0.384.
On to GGCGCUACCUGUAUCAAUGTT against BGLAP, for which the median seed-adjusted z-score is inactive: -0.488.
The result for GCCUAAUCAUUCUUGUUAATT against ELTD1 reads inactive: 0.387; that for GCAGUACGUGGGUCCCUAUTT against TPO, inactive: 0.894.
As for GGCUCGUGGAGGUAACAUUTT against VCP, the median seed-adjusted z-score was inactive: -0.808.
For the sequence CUUUUAAUCAGCAAUCAAATT against ZNF600, the median seed-adjusted z-score was inactive: 0.252.
The result for CGCCUUUGAUAAGUAUAGATT against C1GALT1C1 reads inactive: 0; that for CUCUUAUCAUUGAUGGUUUTT against PIAS3, inactive: -0.216; that for CAAUGAUCAGCUCAAUACATT against SPG3A, inactive: 0.203.
The result for GUGGGCGUGCUAUAAGUGATT against GPR78 reads inactive: 0.607.
The result for GGCUUGAUCAGGUCCAUAATT against BCO2 reads inactive: -0.183; that for GGAUCUCCAUCCACAUACATT against MYLK3, inactive: 0.316; that for “GGCCGUGCAUUAUCCGCAATT against LOC100137047-PLA2G4B”, inactive: -0.022.
Turning to AGGGCUUCUUGAAUCUCUATT against GSTO2, the median seed-adjusted z-score was inactive: 0.142.
Turning to CACUGUAUGUCAUUCCCAATT against ACPL2, the median seed-adjusted z-score was inactive: 0.0392.
The result for CCCUCAAUAUUUUACCUGATT against P2RY1 reads inactive: -0.844; that for GAUCGUGUCUCAAUCCAUUTT against TINAGL1, inactive: -0.059.
Turning to GAACUUCACUUAUUACUGATT against PCDHA1, the median seed-adjusted z-score is inactive: -0.013.
As for CCCAUCCUGUUGUGACCAATT against LIMD2, the median seed-adjusted z-score was inactive: 0.418.
With GCUUUGCAGUUACACGUGUTT against CTCF the figure was inactive: -0.0821.
The result for CGAUGAGUUUGGGACUUCATT against ZFP36L2 reads inactive: -0.0485.
Turning to GGUUCUCCCUAGUCAAUGATT against CDH16, the median seed-adjusted z-score was inactive: -0.209.
With CGGAAGCUAUGACUUAUGATT against SELE the figure was inactive: 0.469; with GAGCAUGGUUCAGAACAUATT against CA1, inactive: 0.262.
Regarding GCAGAUGCUUUAGGACCUATT against UMPS, the median seed-adjusted z-score was inactive: 0.191.
With ACCAGAAACUAGAACGUGATT against CAMK2G the figure was inactive: -0.107; with CAGCGAGUGUAGGAAAGCATT against ZNF84, inactive: -0.246.
In the case of CAAACAUCUAUGCAGCAAATT against MS4A8B, the median seed-adjusted z-score was inactive: 0.207.
For GGUCAGCGGAUUAAACAAATT against HNRPK, the median seed-adjusted z-score is inactive: 0.296.
For the sequence GAAGCAGAUUUUAGAUGAATT against NF2, the median seed-adjusted z-score was inactive: -0.543.
As for GAAUUUAAGCUGCAGCAGATT against RARRES2, the median seed-adjusted z-score was inactive: -0.125.
GGCUCCUUAUUAUAACUAUTT against CTBS: the median seed-adjusted z-score was inactive: 0.0442.
The result for CCGUGUUCAUCUCCAGUUATT against SPNS1 reads inactive: -0.0598; that for CAUUUGCGGUUCGGACAAATT against CACNB2, inactive: 0.
CACCAUUCCAAAUAACUUATT against PCBP1: the median seed-adjusted z-score is inactive: 0.124.
The result for GGCACACGCUCUUGGAAUATT against IL4I1 reads inactive: -0.441; that for GGCUCAAUUCAUCCCUUAATT against ZNF607, inactive: 0.857; that for UCAACUGCCUUAUAACAUUTT against CCRL1, inactive: -0.347.
For CCGAUGCCCUAUUACCACATT against CUBN, the median seed-adjusted z-score was inactive: 0.0558.
The result for GCGUUAUCCUCACCUUCAATT against G6PD reads inactive: 0.593; that for GAACUCUCGUGUUACUCAATT against ANGPTL1, inactive: -0.556; that for GGUUGUCGUGGUUCCAUCATT against HSD17B8, inactive: 0.411.
Consider GGCGAUUCAACAUUAACGATT against TFE3, for which the median seed-adjusted z-score was inactive: -0.0442.
The result for AGUGUGAUGUGACAGCCCATT against MATK reads inactive: -0.754.
As for CUAAAAGUCUUGCUCCAAUTT against BDKRB1, the median seed-adjusted z-score was inactive: 0.448.
With CGGUACAGGUGGUCAUCAATT against DDX49 the figure was inactive: 0.0816.
As for GCCGCGAAAUCACCAAGAUTT against NDN, the median seed-adjusted z-score is inactive: -0.146.
In the case of GGGUUGAAGGUGAUCAUCATT against IMMP2L, the median seed-adjusted z-score was inactive: 0.919.
The result for CCAUCUAUCAGAUUGAGCATT against TP63 reads inactive: -0.129; that for CAAACCCUGCGGCACACUATT against ADAMTS10, inactive: 0.856.
Consider CACCUGCCGUGGUCUAUAUTT against HTRA2, for which the median seed-adjusted z-score was inactive: -0.503.
With GCCUUUACCCAAAAAUCAATT against ZNF182 the figure was inactive: 0; with GGAACGAGAUUGUCAGAUUTT against POLR2B, active: -4.81.
Consider CAAGCACUCUGGUUUAACATT against BAZ2A, for which the median seed-adjusted z-score is inactive: 0.73.
Take GCAUAUUCUUUGAGUUAUATT against RHAG: the median seed-adjusted z-score was inactive: -0.212.
With CCAAAGCCGCUACCAAGUUTT against PCDH21 the figure was inactive: -0.528; with CGGUCAAGUUCGACAAGCATT against CHD5, inactive: -0.195.
For the sequence GGGUGGAAGCGGUAACAAATT against NOS2A, the median seed-adjusted z-score was inactive: 0.419.

Source of the values: PubChem BioAssay AID1347426 (Functional Genomics Laboratory (NCATS/FGL), 2020).
